{
  "source": "paper PMC3362529",
  "target": "T1, GFP-DmRad1 (Drosophila) (UniProt Q9VQD4)",
  "T1 sequence": "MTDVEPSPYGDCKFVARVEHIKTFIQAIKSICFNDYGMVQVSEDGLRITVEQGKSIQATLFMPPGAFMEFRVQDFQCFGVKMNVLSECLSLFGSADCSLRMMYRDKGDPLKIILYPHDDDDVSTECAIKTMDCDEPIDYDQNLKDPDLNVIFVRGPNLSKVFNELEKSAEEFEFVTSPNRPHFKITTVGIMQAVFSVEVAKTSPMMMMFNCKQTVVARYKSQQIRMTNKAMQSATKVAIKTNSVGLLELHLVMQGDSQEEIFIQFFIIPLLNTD",
  "test": "co-IP; HA-DmHus1, FLAG-DmRad9A and GFP-DmRad1 co-expressed in S2 cells; lysis buffer PBS, 1% Triton X-100, protease inhibitors; pre-cleared extracts incubated overnight at 4°C with anti-GFP rabbit antibodies, recovered on protein A-coated beads for 2 h at 4°C; western blots with anti-HA or …; normal rabbit IgG as negative control",
  "note": "These are yes or no findings as the source states them, for the method shown. In cells and extracts the contact can be indirect. Binding calls can cover weak binding; strength is not graded here. Where a sequence is shown, tags or fusion partners need not be part of it.",
  "data": [
    {"substance": "HA-DmHus1 (Drosophila)", "values": [
      {"measurement": "binding", "value": "binds"}
    ]}
  ]
}
